Test results published in the supplement of paper PMC6411743.
± gives the standard deviation of the averaged measurements. The entries are a selection whose mix differs from that of the whole data set.

The chains behind the UniProt entries cited, without tags or fusion partners. Where a name states a change or a piece, a line headed by the entry shows the natural chain unless it says otherwise.
UniProt O60610, whole entry: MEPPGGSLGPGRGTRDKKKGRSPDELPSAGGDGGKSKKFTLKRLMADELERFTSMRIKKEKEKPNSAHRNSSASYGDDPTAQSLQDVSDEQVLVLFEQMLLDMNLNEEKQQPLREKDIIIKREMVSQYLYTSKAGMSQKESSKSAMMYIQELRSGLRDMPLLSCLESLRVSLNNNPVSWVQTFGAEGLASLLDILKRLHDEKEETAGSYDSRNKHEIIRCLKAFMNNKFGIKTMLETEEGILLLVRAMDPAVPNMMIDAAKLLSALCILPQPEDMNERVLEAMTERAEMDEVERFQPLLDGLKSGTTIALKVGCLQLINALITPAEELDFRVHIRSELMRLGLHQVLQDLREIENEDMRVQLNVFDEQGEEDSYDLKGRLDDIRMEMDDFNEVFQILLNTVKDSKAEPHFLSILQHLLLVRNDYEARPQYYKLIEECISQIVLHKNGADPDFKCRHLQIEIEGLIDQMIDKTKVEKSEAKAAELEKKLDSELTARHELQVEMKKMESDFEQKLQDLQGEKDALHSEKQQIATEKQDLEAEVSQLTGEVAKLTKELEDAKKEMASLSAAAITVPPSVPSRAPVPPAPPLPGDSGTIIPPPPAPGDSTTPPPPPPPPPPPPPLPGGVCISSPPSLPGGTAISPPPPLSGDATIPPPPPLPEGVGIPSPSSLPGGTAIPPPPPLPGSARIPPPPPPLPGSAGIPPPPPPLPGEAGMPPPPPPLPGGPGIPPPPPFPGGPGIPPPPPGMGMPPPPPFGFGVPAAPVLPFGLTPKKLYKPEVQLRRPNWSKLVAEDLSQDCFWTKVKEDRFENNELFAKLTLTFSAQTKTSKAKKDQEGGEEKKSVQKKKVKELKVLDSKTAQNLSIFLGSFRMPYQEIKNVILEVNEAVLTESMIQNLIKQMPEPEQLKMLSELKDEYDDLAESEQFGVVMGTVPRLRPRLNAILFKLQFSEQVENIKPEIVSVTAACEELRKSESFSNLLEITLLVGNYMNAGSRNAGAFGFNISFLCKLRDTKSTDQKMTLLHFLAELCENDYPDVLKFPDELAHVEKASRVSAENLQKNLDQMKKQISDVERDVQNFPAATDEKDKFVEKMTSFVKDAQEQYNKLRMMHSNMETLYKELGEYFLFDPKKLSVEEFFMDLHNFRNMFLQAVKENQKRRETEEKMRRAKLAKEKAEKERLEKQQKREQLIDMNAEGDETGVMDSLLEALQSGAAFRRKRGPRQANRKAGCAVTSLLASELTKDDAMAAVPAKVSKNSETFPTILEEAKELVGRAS
UniProt Q13418: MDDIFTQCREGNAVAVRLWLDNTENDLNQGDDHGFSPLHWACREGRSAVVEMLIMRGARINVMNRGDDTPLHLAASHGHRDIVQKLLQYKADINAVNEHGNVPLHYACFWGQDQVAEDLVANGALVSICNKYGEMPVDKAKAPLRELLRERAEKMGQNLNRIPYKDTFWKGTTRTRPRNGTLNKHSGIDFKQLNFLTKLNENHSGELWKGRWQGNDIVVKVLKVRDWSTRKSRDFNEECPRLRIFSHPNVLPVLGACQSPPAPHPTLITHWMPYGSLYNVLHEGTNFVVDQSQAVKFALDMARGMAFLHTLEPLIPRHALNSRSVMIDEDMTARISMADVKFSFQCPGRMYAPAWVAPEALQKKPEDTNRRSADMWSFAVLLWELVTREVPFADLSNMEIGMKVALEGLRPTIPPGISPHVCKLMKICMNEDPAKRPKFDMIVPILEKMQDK
UniProt Q15651: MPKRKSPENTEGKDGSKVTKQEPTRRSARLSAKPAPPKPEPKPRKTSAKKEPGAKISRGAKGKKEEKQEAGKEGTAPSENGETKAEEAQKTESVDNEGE
UniProt P15289: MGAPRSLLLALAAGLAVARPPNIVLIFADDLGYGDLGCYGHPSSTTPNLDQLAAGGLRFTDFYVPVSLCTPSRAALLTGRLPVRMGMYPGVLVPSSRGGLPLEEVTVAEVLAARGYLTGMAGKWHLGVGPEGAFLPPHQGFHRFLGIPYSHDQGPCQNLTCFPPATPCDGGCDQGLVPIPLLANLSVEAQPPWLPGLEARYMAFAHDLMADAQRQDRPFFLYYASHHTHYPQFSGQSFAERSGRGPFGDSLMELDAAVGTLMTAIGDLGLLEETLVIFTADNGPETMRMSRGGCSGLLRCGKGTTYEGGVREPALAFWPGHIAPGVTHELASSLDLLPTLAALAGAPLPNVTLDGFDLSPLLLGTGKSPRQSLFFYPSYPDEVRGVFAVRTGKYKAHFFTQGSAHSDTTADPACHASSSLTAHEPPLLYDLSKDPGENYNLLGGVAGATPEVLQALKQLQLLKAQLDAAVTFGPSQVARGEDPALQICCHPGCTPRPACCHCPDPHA
UniProt Q9BWU0: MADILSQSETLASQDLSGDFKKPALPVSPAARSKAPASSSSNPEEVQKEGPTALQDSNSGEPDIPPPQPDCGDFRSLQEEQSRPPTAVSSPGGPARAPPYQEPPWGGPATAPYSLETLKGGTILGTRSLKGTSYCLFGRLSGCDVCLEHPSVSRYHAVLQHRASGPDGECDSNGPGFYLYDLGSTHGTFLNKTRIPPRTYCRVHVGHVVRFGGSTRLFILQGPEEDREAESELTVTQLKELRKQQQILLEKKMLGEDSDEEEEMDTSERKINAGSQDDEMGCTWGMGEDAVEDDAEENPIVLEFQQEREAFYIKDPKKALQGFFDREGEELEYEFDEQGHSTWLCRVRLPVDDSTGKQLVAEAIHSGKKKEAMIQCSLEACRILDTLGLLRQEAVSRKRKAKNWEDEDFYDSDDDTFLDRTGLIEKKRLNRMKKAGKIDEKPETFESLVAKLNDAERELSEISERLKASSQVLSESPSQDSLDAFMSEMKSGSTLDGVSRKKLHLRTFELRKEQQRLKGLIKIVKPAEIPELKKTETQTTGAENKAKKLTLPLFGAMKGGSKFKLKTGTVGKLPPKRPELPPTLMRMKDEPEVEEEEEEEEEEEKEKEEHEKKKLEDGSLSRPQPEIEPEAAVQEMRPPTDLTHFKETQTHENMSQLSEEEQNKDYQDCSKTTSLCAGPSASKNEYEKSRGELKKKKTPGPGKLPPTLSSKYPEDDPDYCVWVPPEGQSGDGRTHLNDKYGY
UniProt Q8N8S7: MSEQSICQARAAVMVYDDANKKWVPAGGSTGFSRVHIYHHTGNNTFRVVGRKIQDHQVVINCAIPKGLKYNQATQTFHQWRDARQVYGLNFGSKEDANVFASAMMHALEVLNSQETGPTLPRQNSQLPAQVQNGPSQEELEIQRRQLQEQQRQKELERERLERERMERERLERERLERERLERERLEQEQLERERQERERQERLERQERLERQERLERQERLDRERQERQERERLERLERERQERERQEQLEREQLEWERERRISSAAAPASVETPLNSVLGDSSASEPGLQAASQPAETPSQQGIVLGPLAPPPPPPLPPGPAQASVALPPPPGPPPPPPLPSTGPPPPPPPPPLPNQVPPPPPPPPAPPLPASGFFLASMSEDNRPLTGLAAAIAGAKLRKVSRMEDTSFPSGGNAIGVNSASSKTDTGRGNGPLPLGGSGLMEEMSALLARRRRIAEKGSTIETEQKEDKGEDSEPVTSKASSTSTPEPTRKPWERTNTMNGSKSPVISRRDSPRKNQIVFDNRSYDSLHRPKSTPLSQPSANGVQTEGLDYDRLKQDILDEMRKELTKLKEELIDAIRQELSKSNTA
UniProt P01848, whole entry, looked up: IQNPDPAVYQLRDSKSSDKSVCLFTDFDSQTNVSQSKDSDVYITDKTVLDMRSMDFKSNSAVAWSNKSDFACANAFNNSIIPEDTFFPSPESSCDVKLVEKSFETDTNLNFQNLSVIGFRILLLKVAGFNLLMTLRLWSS
UniProt Q96BW1: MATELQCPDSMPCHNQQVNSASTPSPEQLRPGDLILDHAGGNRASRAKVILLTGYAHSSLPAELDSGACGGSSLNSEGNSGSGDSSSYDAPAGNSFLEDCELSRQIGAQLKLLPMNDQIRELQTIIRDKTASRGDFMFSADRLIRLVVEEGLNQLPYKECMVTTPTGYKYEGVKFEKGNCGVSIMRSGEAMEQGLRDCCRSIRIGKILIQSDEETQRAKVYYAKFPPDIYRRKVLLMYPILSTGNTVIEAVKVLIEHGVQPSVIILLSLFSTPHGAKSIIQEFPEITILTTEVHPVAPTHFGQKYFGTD
UniProt Q6PCB5: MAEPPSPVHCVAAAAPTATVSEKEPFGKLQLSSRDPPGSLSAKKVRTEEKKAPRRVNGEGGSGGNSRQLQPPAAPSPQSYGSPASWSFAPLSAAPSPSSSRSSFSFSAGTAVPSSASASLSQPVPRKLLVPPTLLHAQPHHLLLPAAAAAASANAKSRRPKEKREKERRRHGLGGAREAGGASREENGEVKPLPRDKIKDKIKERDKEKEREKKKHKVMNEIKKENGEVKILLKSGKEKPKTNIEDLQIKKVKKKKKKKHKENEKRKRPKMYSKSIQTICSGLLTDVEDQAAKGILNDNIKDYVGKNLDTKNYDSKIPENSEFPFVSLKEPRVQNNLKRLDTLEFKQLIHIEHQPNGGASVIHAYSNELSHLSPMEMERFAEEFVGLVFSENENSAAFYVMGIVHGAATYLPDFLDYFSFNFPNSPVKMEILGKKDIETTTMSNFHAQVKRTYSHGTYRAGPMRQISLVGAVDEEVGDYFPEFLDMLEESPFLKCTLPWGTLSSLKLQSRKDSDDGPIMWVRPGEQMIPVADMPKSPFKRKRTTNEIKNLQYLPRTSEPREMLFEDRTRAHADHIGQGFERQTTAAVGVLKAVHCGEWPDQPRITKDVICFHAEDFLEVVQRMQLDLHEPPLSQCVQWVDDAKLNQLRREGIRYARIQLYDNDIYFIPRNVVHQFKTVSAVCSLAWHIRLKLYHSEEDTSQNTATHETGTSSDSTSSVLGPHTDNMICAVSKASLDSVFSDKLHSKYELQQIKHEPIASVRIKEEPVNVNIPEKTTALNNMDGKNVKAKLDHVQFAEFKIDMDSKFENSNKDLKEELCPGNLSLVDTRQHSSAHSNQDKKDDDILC
UniProt Q8IZP0: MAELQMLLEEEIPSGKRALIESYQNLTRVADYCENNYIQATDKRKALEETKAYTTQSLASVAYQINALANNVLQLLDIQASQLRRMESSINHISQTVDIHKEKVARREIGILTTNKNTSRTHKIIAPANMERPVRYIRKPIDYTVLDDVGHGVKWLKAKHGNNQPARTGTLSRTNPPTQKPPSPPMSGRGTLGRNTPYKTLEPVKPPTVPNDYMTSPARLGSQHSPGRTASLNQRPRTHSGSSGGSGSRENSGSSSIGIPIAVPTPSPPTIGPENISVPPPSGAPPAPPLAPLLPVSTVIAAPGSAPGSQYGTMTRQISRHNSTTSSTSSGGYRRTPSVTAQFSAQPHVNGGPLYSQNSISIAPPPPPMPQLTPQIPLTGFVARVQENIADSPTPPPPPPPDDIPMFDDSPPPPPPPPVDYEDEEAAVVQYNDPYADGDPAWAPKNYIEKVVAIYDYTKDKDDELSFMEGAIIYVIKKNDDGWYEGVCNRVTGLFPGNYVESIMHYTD
UniProt O75608: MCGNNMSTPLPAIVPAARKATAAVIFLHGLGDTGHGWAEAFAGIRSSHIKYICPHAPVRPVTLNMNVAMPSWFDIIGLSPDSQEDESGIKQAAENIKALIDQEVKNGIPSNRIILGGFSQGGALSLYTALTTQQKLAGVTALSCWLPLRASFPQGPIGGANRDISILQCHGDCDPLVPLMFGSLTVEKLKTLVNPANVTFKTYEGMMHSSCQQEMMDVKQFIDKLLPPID
UniProt Q12851: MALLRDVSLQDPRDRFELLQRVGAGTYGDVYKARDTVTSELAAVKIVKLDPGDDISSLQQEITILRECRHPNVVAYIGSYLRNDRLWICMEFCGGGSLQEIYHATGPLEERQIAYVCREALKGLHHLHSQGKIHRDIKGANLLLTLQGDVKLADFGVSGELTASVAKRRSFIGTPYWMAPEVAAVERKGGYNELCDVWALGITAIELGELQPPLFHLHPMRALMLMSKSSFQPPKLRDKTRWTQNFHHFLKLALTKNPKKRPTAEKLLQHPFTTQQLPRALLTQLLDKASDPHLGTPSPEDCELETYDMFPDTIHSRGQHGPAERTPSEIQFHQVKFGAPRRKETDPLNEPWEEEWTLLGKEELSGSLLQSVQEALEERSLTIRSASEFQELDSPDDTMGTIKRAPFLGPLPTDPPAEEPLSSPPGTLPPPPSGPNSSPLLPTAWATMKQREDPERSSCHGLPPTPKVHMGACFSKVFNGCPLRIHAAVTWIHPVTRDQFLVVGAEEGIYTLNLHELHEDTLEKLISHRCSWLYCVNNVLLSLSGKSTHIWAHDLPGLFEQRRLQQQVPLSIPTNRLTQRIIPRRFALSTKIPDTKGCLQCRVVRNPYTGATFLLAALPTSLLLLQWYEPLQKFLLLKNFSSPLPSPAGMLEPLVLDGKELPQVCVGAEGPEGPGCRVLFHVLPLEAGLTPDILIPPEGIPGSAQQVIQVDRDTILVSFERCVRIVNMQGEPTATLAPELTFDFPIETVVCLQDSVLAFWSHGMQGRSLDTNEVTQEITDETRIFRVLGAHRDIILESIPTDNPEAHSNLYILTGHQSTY

Compound: Nc1ncnc2c1ncn2[C@@H]1O[C@H](COP(=O)(O)OP(=O)(O)NP(=O)(O)O)[C@@H](O)[C@H]1O [adenylyl imidodiphosphate]
Test: NP40-soluble protein abundance relative to vehicle (solubility fold change) (ratio); higher = more soluble protein in presence of AMP-PNP
Method in brief: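 Data come from three independent experiments in which Dounce-homogenised Jurkat crude lysate was treated at eight concentrations from 0.1 to 10 mM. Treatment ran 10 min at room temperature and then 3 min at 37 °C, after which 0.8% NP40 and benzonase were added for 60 min at 4 °C before ultracentrifugation. The supernatant underwent TMT labelling and LC-MS/MS, and vsn-normalised intensities were expressed as fold change against the detergent-processed vehicle in each replicate.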

Target	NP40-soluble protein abundance (concentration: 1mM)	NP40-soluble protein abundance (concentration: 2mM)	NP40-soluble protein abundance (concentration: 4mM)	NP40-soluble protein abundance (concentration: 6mM)	NP40-soluble protein abundance (concentration: 8mM)	NP40-soluble protein abundance (concentration: 10mM)
A0A140T9L0|O15213 (UniProt O15213)	0.994 ± 0.019	0.9887 ± 0.0036	1.04 ± 0.021	1.02 ± 0.012	0.992 ± 0.019	1.05 ± 0.02
A0A0C3SFZ9|M0QZI3 and related entries (UniProt O14526)	1.01 ± 0.014	1 ± 0.013	0.9951 ± 0.0053	0.982 ± 0.031	0.965 ± 0.039	0.948 ± 0.018
A0A0G2JIW2|A2AE48 and related entries (UniProt Q12899)	1.033 ± 0.0052	0.98 ± 0.01	1.01 ± 0.02	1.02 ± 0.039	1.04 ± 0.027	1.02 ± 0.011
A0A0C4DFN8|P22570 and related entries (UniProt P22570)	1.01 ± 0.0058	1.01 ± 0.053	1.02 ± 0.033	0.988 ± 0.015	0.977 ± 0.012	0.976 ± 0.011
A0A0A0MT22|P08575 and related entries (UniProt P08575)	1.01 ± 0.019	1.03 ± 0.066	0.992 ± 0.037	0.9958 ± 0.007	0.98 ± 0.03	0.985 ± 0.023
A0A0B4J1W0|F5GY88 and related entries (UniProt O75448)	0.996 ± 0.016	1.01 ± 0.028	1.06 ± 0.043	1.01 ± 0.059	1.01 ± 0.074	1.05 ± 0.12
A0A0A6YY95|Q9Y240 (UniProt Q9Y240)	0.97 ± 0.026	0.972 ± 0.029	1.01 ± 0.043	0.985 ± 0.027	1.018 ± 0.0027	1.04 ± 0.018
A0A0G2JH68 (UniProt O60610)	1.01 ± 0.028	1.03 ± 0.018	0.981 ± 0.016	0.979 ± 0.021	0.955 ± 0.015	0.9642 ± 0.0069
UniProt A0FGR8-2|H7BXI1	0.986 ± 0.023	0.925 ± 0.07	0.983 ± 0.022	0.988 ± 0.042	1.01 ± 0.044	1 ± 0.048
A0A0A0MTH3|Q13418 (UniProt Q13418)	0.962 ± 0.032	0.902 ± 0.069	0.955 ± 0.018	0.98 ± 0.028	0.995 ± 0.042	0.961 ± 0.0099
A0A0A0MRU0|A0A0C4DH75|A0A0D9SFF8|B4DZ84 and related entries (UniProt Q14168)	0.966 ± 0.015	0.948 ± 0.021	0.979 ± 0.032	0.967 ± 0.011	0.991 ± 0.054	0.944 ± 0.018
A0A087X0C8|O15484 and related entries (UniProt O15484)	1.01 ± 0.056	0.983 ± 0.034	1 ± 0.037	1.02 ± 0.019	1 ± 0.03	1.01 ± 0.035
A0A0C4DGH3|Q9Y6R0 (UniProt Q9Y6R0)	0.976 ± 0.069	0.973 ± 0.072	0.997 ± 0.015	0.992 ± 0.052	1.01 ± 0.0056	1.08 ± 0.04
A0A0C4DGW2|P57768 and related entries (UniProt P57768)	1.03 ± 0.026	1.02 ± 0.033	1.02 ± 0.043	1 ± 0.02	0.989 ± 0.025	1 ± 0.014
A0A0D9SEI3|A0A0D9SEN2|A0A0D9SER5|B7ZVY7 and related entries (UniProt J3QR44+P21127+B7ZVY7)	0.966 ± 0.018	0.942 ± 0.036	0.92 ± 0.022	0.978 ± 0.035	0.94 ± 0.041	0.966 ± 0.035
A0A0A0MQR2|Q9BY42 (UniProt Q9BY42)	1.04 ± 0.022	1.06 ± 0.077	1.03 ± 0.028	1.03 ± 0.02	1 ± 0.033	1.03 ± 0.07
A0A087WZE9 (UniProt Q15651)	1.03 ± 0.0075	1.08 ± 0.022	1.09 ± 0.043	1.144 ± 0.01	1.12 ± 0.04	1.23 ± 0.026
A0A0C4DG44|O43464 and related entries (UniProt O43464)	0.99 ± 0.026	0.933 ± 0.045	0.974 ± 0.031	0.957 ± 0.026	0.962 ± 0.036	0.962 ± 0.046
A0A0A6YYI3|A0A0B4J1V8|Q9NQ55 and related entries (UniProt Q9NQ55)	0.993 ± 0.015	0.991 ± 0.023	1.006 ± 0.003	0.957 ± 0.013	0.956 ± 0.015	0.967 ± 0.025
A0A087X0Q1|Q7Z739 (UniProt Q7Z739)	1.04 ± 0.053	1.05 ± 0.059	1.05 ± 0.047	1.03 ± 0.034	1.01 ± 0.044	1.03 ± 0.029
A0A0C4DG40|Q8NF91 and related entries (UniProt Q8NF91)	1.01 ± 0.014	1.02 ± 0.066	0.999 ± 0.053	0.984 ± 0.045	0.931 ± 0.027	0.963 ± 0.059

Target	NP40-soluble protein abundance (concentration: 1mM)	NP40-soluble protein abundance (concentration: 2mM)	NP40-soluble protein abundance (concentration: 4mM)	NP40-soluble protein abundance (concentration: 6mM)	NP40-soluble protein abundance (concentration: 8mM)	NP40-soluble protein abundance (concentration: 10mM)
A0A0G2JHC2|Q6NYC8 (UniProt Q6NYC8)	1.07 ± 0.012	1.14 ± 0.087	1.1 ± 0.035	1.08 ± 0.056	1.07 ± 0.038	1.12 ± 0.023
A0A0B4J220 (UniProt E9PRG8)	1.14 ± 0.051	1.15 ± 0.057	1.2 ± 0.045	1.26 ± 0.1	1.4 ± 0.053	1.39 ± 0.046
A0A0C4DFZ2|P15289 (UniProt P15289)	1.02 ± 0.02	1.03 ± 0.037	1.04 ± 0.024	1.06 ± 0.023	1.05 ± 0.021	1.08 ± 0.048
A0A0A6YYJ5|E9PLY5 and related entries (UniProt Q9UPN3+H3BQK9+H3BPE1+E9PLY5)	1.01 ± 0.026	1.04 ± 0.032	1.01 ± 0.018	0.979 ± 0.021	0.9526 ± 0.0012	0.976 ± 0.013
A0A087X0M4|Q9BWU0 (UniProt Q9BWU0)	1.01 ± 0.016	1.01 ± 0.016	1.01 ± 0.017	1.02 ± 0.043	0.986 ± 0.021	1.01 ± 0.019
A0A0U1RRM6|Q8N8S7 and related entries (UniProt Q8N8S7)	1.01 ± 0.028	1.08 ± 0.063	1.04 ± 0.015	1.05 ± 0.047	1.01 ± 0.043	1.05 ± 0.023
A0A087WWC6|P01848 and related entries (UniProt Q6P4I7+P01848)	1.01 ± 0.029	1.05 ± 0.077	0.976 ± 0.039	1.01 ± 0.021	0.977 ± 0.032	0.9923 ± 0.0095
A0A0A0MRR5|Q96BW1 and related entries (UniProt Q96BW1)	0.991 ± 0.022	0.9931 ± 0.0058	1.01 ± 0.022	0.9909 ± 0.0094	0.993 ± 0.024	0.996 ± 0.016
A0A087X239|Q6PCB5 (UniProt Q6PCB5)	1.05 ± 0.017	1.114 ± 0.0078	1.12 ± 0.015	1.13 ± 0.036	1.15 ± 0.013	1.17 ± 0.022
A0A087WXC5|E7ESZ7 and related entries (UniProt O95299)	1.01 ± 0.026	0.981 ± 0.054	0.951 ± 0.016	0.927 ± 0.057	0.923 ± 0.047	0.896 ± 0.043
A0A087X176|Q6ZRP7 (UniProt Q6ZRP7)	0.98 ± 0.037	1.02 ± 0.048	1.01 ± 0.077	1.03 ± 0.063	1.04 ± 0.043	1.06 ± 0.072
A0A0A0MRT6|B6VEX4 and related entries (UniProt Q8IZP0)	1.05 ± 0.032	1.09 ± 0.054	1.06 ± 0.075	1.01 ± 0.036	0.998 ± 0.017	1 ± 0.031
A0A0A0MTB8|Q8NI36 (UniProt Q8NI36)	1.1 ± 0.06	1.15 ± 0.11	1.37 ± 0.12	1.55 ± 0.11	1.73 ± 0.16	1.78 ± 0.086
A0A087WXI1|Q6NVY1 (UniProt Q6NVY1)	1.01 ± 0.016	0.967 ± 0.037	0.971 ± 0.019	0.9685 ± 0.0074	0.991 ± 0.019	0.955 ± 0.02
A0A087X1K9|O75608 and related entries (UniProt O75608)	0.963 ± 0.046	0.956 ± 0.026	0.937 ± 0.021	0.995 ± 0.035	0.966 ± 0.034	0.935 ± 0.044
A0A096LP75|C4AMC7 and related entries (UniProt Q6VEQ5+C4AMC7)	0.982 ± 0.052	1.12 ± 0.15	1.01 ± 0.064	1 ± 0.049	0.985 ± 0.015	1.03 ± 0.033
A0A0A0MR85|Q03013 (UniProt Q03013)	0.998 ± 0.013	0.984 ± 0.01	0.948 ± 0.046	0.951 ± 0.04	0.934 ± 0.033	0.928 ± 0.056
A0A0B4J2E5|Q15269 (UniProt Q15269)	1.05 ± 0.019	1.04 ± 0.098	1.23 ± 0.043	1.38 ± 0.036	1.56 ± 0.074	1.52 ± 0.095
A0A0A0MRU8|Q9Y4X4 (UniProt Q9Y4X4)	1 ± 0.023	1.07 ± 0.027	1 ± 0.047	1.01 ± 0.014	1.02 ± 0.011	0.995 ± 0.017
A0A0A6YYA7|Q12851 and related entries (UniProt Q12851)	0.971 ± 0.02	0.953 ± 0.067	0.956 ± 0.038	0.961 ± 0.049	0.916 ± 0.047	0.943 ± 0.04

As a working copy, some entries already given:
Target	NP40-soluble protein abundance (concentration: 1mM)	NP40-soluble protein abundance (concentration: 2mM)	NP40-soluble protein abundance (concentration: 4mM)	NP40-soluble protein abundance (concentration: 6mM)	NP40-soluble protein abundance (concentration: 8mM)	NP40-soluble protein abundance (concentration: 10mM)
A0A0B4J220 (UniProt E9PRG8)	1.14 ± 0.051	1.15 ± 0.057	1.2 ± 0.045	1.26 ± 0.1	1.4 ± 0.053	1.39 ± 0.046
A0A0C4DFZ2|P15289 (UniProt P15289)	1.02 ± 0.02	1.03 ± 0.037	1.04 ± 0.024	1.06 ± 0.023	1.05 ± 0.021	1.08 ± 0.048
A0A0A6YYJ5|E9PLY5 and related entries (UniProt Q9UPN3+H3BQK9+H3BPE1+E9PLY5)	1.01 ± 0.026	1.04 ± 0.032	1.01 ± 0.018	0.979 ± 0.021	0.9526 ± 0.0012	0.976 ± 0.013
A0A087X0M4|Q9BWU0 (UniProt Q9BWU0)	1.01 ± 0.016	1.01 ± 0.016	1.01 ± 0.017	1.02 ± 0.043	0.986 ± 0.021	1.01 ± 0.019
A0A0U1RRM6|Q8N8S7 and related entries (UniProt Q8N8S7)	1.01 ± 0.028	1.08 ± 0.063	1.04 ± 0.015	1.05 ± 0.047	1.01 ± 0.043	1.05 ± 0.023
A0A087WWC6|P01848 and related entries (UniProt Q6P4I7+P01848)	1.01 ± 0.029	1.05 ± 0.077	0.976 ± 0.039	1.01 ± 0.021	0.977 ± 0.032	0.9923 ± 0.0095
A0A0A0MRR5|Q96BW1 and related entries (UniProt Q96BW1)	0.991 ± 0.022	0.9931 ± 0.0058	1.01 ± 0.022	0.9909 ± 0.0094	0.993 ± 0.024	0.996 ± 0.016
A0A087X239|Q6PCB5 (UniProt Q6PCB5)	1.05 ± 0.017	1.114 ± 0.0078	1.12 ± 0.015	1.13 ± 0.036	1.15 ± 0.013	1.17 ± 0.022
A0A087WXC5|E7ESZ7 and related entries (UniProt O95299)	1.01 ± 0.026	0.981 ± 0.054	0.951 ± 0.016	0.927 ± 0.057	0.923 ± 0.047	0.896 ± 0.043
